Results as given in PubChem BioAssay AID330 (DTP/NCI, 2004).
The list does not hold the whole screen: it is rich in T/C values a quarter to a half above the control, in often repeated tests (any T/C) and in doses without a T/C. Further doses and runs are listed elsewhere. T/C is the treated group as % of the vehicle group. Some doses have a count of surviving animals in place of a T/C: the source holds a T/C of zero for them, seemingly a mark for toxic or unscored doses. Some doses without a T/C left all or most animals alive at the check, yet need not have been tolerated: the source hardly ever lists a survival T/C far under the control, and the zero likely stands for such cases as well. Survivors were counted at the toxicity check, usually on the fifth day, unless a day is given; later deaths do not show. Schedules are NCI's codes, read here as Q, the interval in days (D) or hours (H), X, the number of doses. Some doses were run more than once; their values stand side by side, smallest first. Where survival is the endpoint, this PubChem deposit counts one and a half times the control or more as active, and values a quarter to a half above the control carry no call in these data; other NCI protocols may use other cut-offs. Some T/C values carry the count of animals alive at the toxicity check (mostly the fifth day); without a count, all were alive then.

System: P388 leukemia ip, CD2F1 mice, survival T/C
Assay: NCI In Vivo Anticancer Drug Screen. Data for tumor model P388 Leukemia (intraperitoneal) in CD2F1 (CDF1) mice
Details: T/C endpoint: median survival time, higher T/C = longer survival
[1] = dose: 12.5 mg/kg/injection, schedule: Q01DX005 (ip), vehicle: saline with Tween-80
[2] = dose: 50.0 mg/kg/injection, schedule: Q01DX005 (ip), vehicle: saline with Tween-80
[3] = dose: 100.0 mg/kg/injection, schedule: Q01DX005 (ip), vehicle: saline with Tween-80
[4] = dose: 200.0 mg/kg/injection, schedule: Q01DX005 (ip), vehicle: saline with Tween-80
[5] = dose: 50.0 mg/kg/injection, schedule: Q01DX009 (ip), vehicle: saline
[6] = dose: 100.0 mg/kg/injection, schedule: Q01DX009 (ip), vehicle: saline
[7] = dose: 200.0 mg/kg/injection, schedule: Q01DX009 (ip), vehicle: saline
[8] = dose: 200.0 mg/kg/injection, schedule: Q01DX005 (ip), vehicle: saline
[9] = dose: 400.0 mg/kg/injection, schedule: Q04DX003 (ip), vehicle: saline with Tween-80

Structure (SMILES): CC(=O)Nc1cc(F)c2c(c1F)Cc1cc(F)ccc1-2
- survivor count (dose: 400.0 mg/kg/injection, schedule: Q01DX009 (ip), vehicle: saline with Tween-80): 6 of 6

Structure (SMILES): O=C(NC1CCOC1=O)c1ccc(N=C=S)cc1 (configuration not stated)
- survivor count (dose: 200.0 mg/kg/injection, schedule: Q04DX003 (ip), vehicle: Klucel (hydroxypropylcellulose) (HPC)): 2 of 6
- survivor count (dose: 400.0 mg/kg/injection, schedule: Q04DX003 (ip), vehicle: Klucel (hydroxypropylcellulose) (HPC)): 0 of 6

Structure (SMILES): CC[C@@H](C)C(=O)O[C@H]1[C@H](O)[C@H]2[C@@H](CN3C[C@@H](C)CC[C@H]3[C@@]2(C)O)[C@@H]2CC34O[C@]5(O)[C@@H](OC(=O)[C@@](C)(O)CC)CC[C@@]3(C)[C@@H]5[C@@H](OC(C)=O)[C@@H](OC(C)=O)[C@H]4[C@@]21O
- survivor count (dose: 0.2 mg/kg/injection, schedule: Q01DX005 (ip), vehicle: saline): 0 of 6
- survivor count (dose: 0.4 mg/kg/injection, schedule: Q01DX005 (ip), vehicle: saline): 0 of 6
- survivor count (dose: 0.8 mg/kg/injection, schedule: Q01DX005 (ip), vehicle: saline with Tween-80): 0 of 6
- survivor count (dose: 1.6 mg/kg/injection, schedule: Q01DX005 (ip), vehicle: saline with Tween-80): 0 of 6
- survivor count (dose: 3.12 mg/kg/injection, schedule: Q01DX005 (ip), vehicle: saline with Tween-80): 0 of 6
- survivor count (dose: 6.25 mg/kg/injection, schedule: Q01DX005 (ip), vehicle: saline with Tween-80): 0 of 6
- survivor count [1]: 0 of 6
- survivor count [2]: 0 of 5
- survivor count [3]: 0 of 5
- survivor count [4]: 0 of 5

Structure (SMILES): CN(C)CCSc1cc(O)c2c(c1O)C(=O)c1ccccc1C2=O
- survivor count (dose: 400.0 mg/kg/injection, schedule: Q01DX009 (ip), vehicle: water): 4 of 6

Structure (SMILES): CN(Cc1ccc2nc(N)[nH]c(=O)c2c1)c1ccc(C(=O)NC(CCC(=O)O)C(=O)O)cc1 (configuration not stated)
- survivor count [4]: 3 of 6

Structure (SMILES): O=C1Nc2ccccc2/C1=c1/sc2nc3ccccc3n2c1=O
- survivor count (dose: 100.0 mg/kg/injection, schedule: Q01DX001 (ip), vehicle: Klucel (hydroxypropylcellulose) (HPC)): 6 of 6

Structure (SMILES): Nc1cccnc1N
- survivor count (dose: 25.0 mg/kg/injection, schedule: Q01DX009 (ip), vehicle: saline): 1 of 6 and 3 of 6
- survivor count (dose: 40.0 mg/kg/injection, schedule: Q01DX009 (ip), vehicle: saline): 0 of 6
- survivor count [5]: 0 of 6
- survivor count [6]: 0 of 6
- survivor count [7]: 0 of 6

Structure (SMILES): OC/C(Cl)=C(\Cl)CO
- survivor count [5]: 6 of 6
- survivor count [6]: 2 of 6
- survivor count [7]: 0 of 6

Structure (SMILES): CC(C)(C)c1cc(N)cc([N+](=O)[O-])c1
- survivor count (dose: 400.0 mg/kg/injection, schedule: Q04DX002 (ip), vehicle: other): 5 of 6

Structure (SMILES): O=C1C[C@@H](c2ccccc2)NCCCCN(O)CCCN1
- survivor count [8]: 0 of 6

Structure (SMILES): C[N+](C)(C)C1CCC2CCCCC2C1 (configuration not stated)
- survivor count (dose: 100.0 mg/kg/injection, schedule: Q04DX003 (ip), vehicle: saline with Tween-80): 4 of 6 and 6 of 6
- survivor count (dose: 200.0 mg/kg/injection, schedule: Q04DX003 (ip), vehicle: saline with Tween-80): 1 of 6
- survivor count [9]: 0 of 6

Structure (SMILES): CC(=O)C(C(C)=O)C(C(C)=O)C(C)=O.[Cu]
- survivor count [1]: 1 of 5
- survivor count (dose: 25.0 mg/kg/injection, schedule: Q01DX005 (ip), vehicle: saline with Tween-80): 0 of 5

Structure (SMILES): NNC(=O)CCSC(=O)Nc1ccccc1
- survivor count [4]: 0 of 5

Structure (SMILES): O=C(S[Si](c1ccccc1)(c1ccccc1)c1ccccc1)c1ccccc1
- survivor count [7]: 5 of 6

Structure (SMILES): CCCc1c2c(c(CCC)c3c1-c1cccc4cccc-3c14)-c1ccccc1C2=O
- survivor count [9]: 1 of 6

Structure (SMILES): CCC(C)N(CC)CCNc1cc(OC)cc2cccnc12 (configuration not stated)
- survivor count [8]: 0 of 5

Structure (SMILES): CCSc1ccc(N2C(N)=NC(N)=NC2(C)C)cc1
- survivor count [2]: 0 of 5
- survivor count [3]: 0 of 5
- survivor count [4]: 0 of 5

Structure (SMILES): O=c1ncc2ccc([N+](=O)[O-])cc2[nH]1
- T/C (dose: 50.0 mg/kg/injection, schedule: Q01DX005 (ip), vehicle: Klucel (hydroxypropylcellulose) (HPC)): 93, 97, 99, 123 % of control
- survivor count (dose: 100.0 mg/kg/injection, schedule: Q01DX005 (ip), vehicle: Klucel (hydroxypropylcellulose) (HPC)): 4 of 5
- survivor count (dose: 200.0 mg/kg/injection, schedule: Q01DX005 (ip), vehicle: Klucel (hydroxypropylcellulose) (HPC)): 0 of 5

Structure (SMILES): CCN1C(=O)C(=O)c2ccccc21
- survivor count (dose: 18.2 mg/kg/injection, schedule: Q01DX009 (ip), vehicle: saline): 5 of 5

Structure (SMILES): CN(C)CCOc1ccc2c(c1)C/C(=C/c1ncc([N+](=O)[O-])n1C)C2=O
- T/C (dose: 30.0 mg/kg/injection, schedule: Q01DX009 (ip), vehicle: saline with Tween-80): 129 % of control
- T/C (dose: 45.0 mg/kg/injection, schedule: Q01DX009 (ip), vehicle: saline with Tween-80): 126 % of control [5 of 6 alive]
- T/C (dose: 60.0 mg/kg/injection, schedule: Q01DX009 (ip), vehicle: saline with Tween-80): 137 % of control
- T/C (dose: 90.0 mg/kg/injection, schedule: Q01DX009 (ip), vehicle: saline with Tween-80): 125 and 134 % of control

Structure (SMILES): CC(C)Nc1nc(NCC2CC2)nc(ON2C(=O)CCC2=O)n1
- survivor count (dose: 100.0 mg/kg/injection, schedule: Q01DX009 (ip), vehicle: saline with Tween-80): 6 of 6

Structure (SMILES): COc1ccc(Oc2cc3c(cc2OC)CCN(C)C3)cc1
- survivor count [6]: 2 of 6
- survivor count [7]: 0 of 6

Structure (SMILES): COC(=O)OC(C#N)c1ccc([N+](=O)[O-])cc1 (configuration not stated)
- survivor count (dose: 100.0 mg/kg/injection, schedule: Q01DX009 (ip), vehicle: suspension in saline): 6 of 6
- survivor count (dose: 200.0 mg/kg/injection, schedule: Q01DX009 (ip), vehicle: suspension in saline): 4 of 6

Structure (SMILES): c1ccc2c(c1)Cc1ccccc1N2CCN1CCCCC1
- survivor count [8]: 2 of 5

Structure (SMILES): O=C1CCC2CCCCC2N1 (configuration not stated)
- survivor count (dose: 200.0 mg/kg/injection, schedule: Q01DX009 (ip), vehicle: Klucel (hydroxypropylcellulose) (HPC)): 2 of 6

Structure (SMILES): NSc1nc2ccccc2s1
- survivor count [9]: 5 of 6

Structure (SMILES): CCCCCCCC(=O)C1C(=O)OC(C)(C)OC1=O
- survivor count (dose: 240.0 mg/kg/injection, schedule: Q01DX005 (ip), vehicle: saline with Tween-80): 0 of 6

Structure (SMILES): COC1(OC)C=NNc2nncn21
- T/C [8]: 126 % of control

Structure (SMILES): CC(C)(NCc1ccccc1)C(=O)OC(C)(C)C(=O)NCc1ccccc1
- survivor count [3]: 1 of 5
